The record followed here is PMC8762023.

The chains behind the UniProt entries cited, without tags or fusion partners. Where a name states a change or a piece, a line headed by the entry shows the natural chain unless it says otherwise. A line that says so, or that is headed by a name, gives the form on record, which may keep a tag or linker.
UniProt Q8IVH8: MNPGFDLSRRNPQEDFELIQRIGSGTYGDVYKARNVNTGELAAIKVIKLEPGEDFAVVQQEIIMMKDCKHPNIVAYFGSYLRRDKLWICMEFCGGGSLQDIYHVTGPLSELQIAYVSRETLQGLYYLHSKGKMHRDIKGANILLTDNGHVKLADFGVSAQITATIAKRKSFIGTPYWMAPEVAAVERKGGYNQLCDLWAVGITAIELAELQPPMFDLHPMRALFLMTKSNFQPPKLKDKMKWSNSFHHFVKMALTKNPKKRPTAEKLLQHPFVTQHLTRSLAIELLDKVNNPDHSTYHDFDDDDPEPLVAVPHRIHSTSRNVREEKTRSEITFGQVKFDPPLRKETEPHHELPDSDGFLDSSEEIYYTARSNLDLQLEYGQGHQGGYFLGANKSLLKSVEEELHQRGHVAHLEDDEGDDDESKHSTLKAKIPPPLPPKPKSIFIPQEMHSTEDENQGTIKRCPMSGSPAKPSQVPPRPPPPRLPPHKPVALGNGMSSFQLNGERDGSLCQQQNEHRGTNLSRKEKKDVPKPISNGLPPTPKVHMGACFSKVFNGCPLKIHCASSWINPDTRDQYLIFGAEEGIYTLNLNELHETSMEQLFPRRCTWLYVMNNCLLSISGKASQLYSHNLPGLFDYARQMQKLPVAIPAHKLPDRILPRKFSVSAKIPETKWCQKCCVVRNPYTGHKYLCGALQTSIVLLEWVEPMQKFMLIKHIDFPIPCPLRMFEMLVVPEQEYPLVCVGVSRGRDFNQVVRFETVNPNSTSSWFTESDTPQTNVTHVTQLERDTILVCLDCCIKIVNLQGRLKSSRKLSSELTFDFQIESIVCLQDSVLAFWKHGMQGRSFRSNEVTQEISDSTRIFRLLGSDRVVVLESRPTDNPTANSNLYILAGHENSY
Flag-GLKΔN (K650R) mutant (Q8IVH8, form named): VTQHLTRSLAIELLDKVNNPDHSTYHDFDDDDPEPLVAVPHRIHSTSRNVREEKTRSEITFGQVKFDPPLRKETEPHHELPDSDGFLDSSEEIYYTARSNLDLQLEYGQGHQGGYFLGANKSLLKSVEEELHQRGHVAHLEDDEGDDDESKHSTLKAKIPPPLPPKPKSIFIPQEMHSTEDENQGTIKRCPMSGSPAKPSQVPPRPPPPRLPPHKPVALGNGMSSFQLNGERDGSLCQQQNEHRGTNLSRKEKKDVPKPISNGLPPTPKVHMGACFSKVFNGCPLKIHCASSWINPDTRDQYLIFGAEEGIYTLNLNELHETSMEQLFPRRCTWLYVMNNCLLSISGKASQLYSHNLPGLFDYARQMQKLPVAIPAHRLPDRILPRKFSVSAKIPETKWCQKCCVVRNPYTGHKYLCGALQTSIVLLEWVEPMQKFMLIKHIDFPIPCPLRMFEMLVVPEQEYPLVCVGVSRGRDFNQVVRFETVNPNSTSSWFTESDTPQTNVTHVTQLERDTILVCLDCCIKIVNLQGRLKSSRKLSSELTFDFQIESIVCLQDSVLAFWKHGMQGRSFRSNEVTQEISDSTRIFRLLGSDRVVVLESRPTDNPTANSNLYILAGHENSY
Flag-GLKΔN (A410T) mutant (Q8IVH8, form named): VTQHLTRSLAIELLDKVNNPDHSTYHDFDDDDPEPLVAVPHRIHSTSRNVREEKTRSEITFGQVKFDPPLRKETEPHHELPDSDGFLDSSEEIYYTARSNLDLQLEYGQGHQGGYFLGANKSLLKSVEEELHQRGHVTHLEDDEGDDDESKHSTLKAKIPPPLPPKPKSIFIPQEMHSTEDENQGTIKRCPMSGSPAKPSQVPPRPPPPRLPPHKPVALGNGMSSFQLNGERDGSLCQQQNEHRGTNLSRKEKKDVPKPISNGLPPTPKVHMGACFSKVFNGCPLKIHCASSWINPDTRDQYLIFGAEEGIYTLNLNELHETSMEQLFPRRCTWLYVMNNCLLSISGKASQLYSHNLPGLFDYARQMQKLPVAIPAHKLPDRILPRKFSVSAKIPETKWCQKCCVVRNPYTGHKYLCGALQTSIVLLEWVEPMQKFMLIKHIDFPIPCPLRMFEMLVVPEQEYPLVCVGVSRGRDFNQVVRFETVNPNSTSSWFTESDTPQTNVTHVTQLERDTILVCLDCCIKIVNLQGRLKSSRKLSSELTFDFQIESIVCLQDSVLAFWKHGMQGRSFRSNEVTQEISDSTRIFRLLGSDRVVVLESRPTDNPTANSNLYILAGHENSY

The target in experiment [1] is T1, Myc-MKRN4 (human) (UniProt Q13434).
T1 sequence: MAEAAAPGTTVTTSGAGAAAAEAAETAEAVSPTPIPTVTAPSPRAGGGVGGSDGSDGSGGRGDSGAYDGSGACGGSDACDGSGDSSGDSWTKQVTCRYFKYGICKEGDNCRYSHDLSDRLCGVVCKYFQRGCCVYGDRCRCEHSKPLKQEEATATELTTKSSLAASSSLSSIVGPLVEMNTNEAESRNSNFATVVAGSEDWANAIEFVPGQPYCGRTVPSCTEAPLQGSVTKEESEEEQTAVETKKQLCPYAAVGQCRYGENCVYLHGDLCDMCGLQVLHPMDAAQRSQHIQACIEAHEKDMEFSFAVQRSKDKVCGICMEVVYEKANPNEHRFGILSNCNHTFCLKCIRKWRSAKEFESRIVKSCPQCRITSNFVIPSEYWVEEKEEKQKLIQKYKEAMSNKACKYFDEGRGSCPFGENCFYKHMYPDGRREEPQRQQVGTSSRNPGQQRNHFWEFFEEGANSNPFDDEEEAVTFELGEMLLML
Nature of the experiment: co-IP; lysates of HEK293T cells cotransfected with Myc-MKRN4 plus Flag-GLKΔN wild-type or mutant plasmids.

Experiment [2] concerns the target T1, Myc-MKRN4 (human). Nature of the experiment: proximity ligation; in situ PLA of Myc-tagged MKRN4 and Flag-tagged GLK in HEK293T cells; 25 µM MG132 for 2 hours before harvest.

Results are given in words; binding and its absence hold for the method and conditions named. Binding seen in cells or lysates may run through a third protein. Some entries that bind do so weakly or less than the wild type. Where a sequence is shown, tags or fusion partners need not be part of it.

Take “Flag-GLKΔN (K650R) mutant (from UniProt Q8IVH8 273-894) (domain or fragment)”: the binding entry with Myc-MKRN4 (human) [1] was “binds”.

As for “Flag-GLKΔN wild-type (deletion of amino acids 1–272) (from UniProt Q8IVH8 273-894) (domain or fragment)”, the binding entry with Myc-MKRN4 (human) [1] was “binds”.

For the substance “Flag-GLK (MAP4K3), in HEK293T cells (from UniProt Q8IVH8 1-894) (enzyme)”, the binding result with Myc-MKRN4 (human) [2] is recorded as “binds”.

“Flag-GLKΔN (A410T) mutant (from UniProt Q8IVH8 273-894) (domain or fragment)”: in the experiment with Myc-MKRN4 (human) [1], the binding entry was “no binding”.
